Data taken from PubChem BioAssay AID504749, deposited by NCATS (2011).

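Malaria parasite (P. falciparum) lines kept in red blood cells; parasite DNA is measured by SYBR Green fluorescence after lysis, 72 h after compound addition. Each compound was titrated across a series from about 0.000037 to 29 µM. The number is the fitted AC50, the concentration giving a half-maximal change in signal; a lower value means higher potency, whether the curve shows a decrease or an increase. Calls follow the curve class and fit quality: every row here is inconclusive, covering signal-raising curves and weak, poorly fitted, partial or highest-dose-only inhibition curves.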

Values are in nM. Every entry below has the call inconclusive. Only part of the assay is shown, chiefly results filed as inconclusive. A potency from a partial, single-point or poor curve is only a rough figure.

compound,setting,fitted potency (nM),remark
CN1CCc2cc(Cl)c(O)cc2[C@H]2c3ccccc3CC[C@@H]21,DFO2036,10000,"inhibitor, single point"
CN1CCc2cc(Cl)c(O)cc2[C@H]2c3ccccc3CC[C@@H]21,ICS,11220,"inhibitor, single point"
CN1CCc2cc(Cl)c(O)cc2[C@H]2c3ccccc3CC[C@@H]21,ATS95,11220,"inhibitor, single point"
CN1CCc2cc(Cl)c(O)cc2[C@H]2c3ccccc3CC[C@@H]21,CP297,15101,"inhibitor, partial curve, poor fit"
CN1CCc2cc(Cl)c(O)cc2[C@H]2c3ccccc3CC[C@@H]21,HB3,10000,"inhibitor, single point"
CN1CCc2cc(Cl)c(O)cc2[C@H]2c3ccccc3CC[C@@H]21,CP329,15101,"inhibitor, single point"
CN1CCc2cc(Cl)c(O)cc2[C@H]2c3ccccc3CC[C@@H]21,CP211,11995,"inhibitor, partial curve"
CN1CCc2cc(Cl)c(O)cc2[C@H]2c3ccccc3CC[C@@H]21,CP191,8912,"inhibitor, single point"
CN1CCc2cc(Cl)c(O)cc2[C@H]2c3ccccc3CC[C@@H]21,GB4,9528,"inhibitor, partial curve, poor fit"
CN1CCc2cc(Cl)c(O)cc2[C@H]2c3ccccc3CC[C@@H]21,CP250,14125,"inhibitor, single point"
CN1CCc2cc(Cl)c(O)cc2[C@H]2c3ccccc3CC[C@@H]21,CP217,10000,"inhibitor, single point"
CC(=O)[C@]1(O)Cc2c(O)c3c(c(O)c2[C@@H](O[C@H]2C[C@H](N)[C@H](O)[C@H](C)O2)C1)C(=O)c1c(O)cccc1C3=O,CP265,11220,"inhibitor, single point"
CC(=O)[C@]1(O)Cc2c(O)c3c(c(O)c2[C@@H](O[C@H]2C[C@H](N)[C@H](O)[C@H](C)O2)C1)C(=O)c1c(O)cccc1C3=O,FAB9,12589,"inhibitor, single point"
CC(=O)[C@]1(O)Cc2c(O)c3c(c(O)c2[C@@H](O[C@H]2C[C@H](N)[C@H](O)[C@H](C)O2)C1)C(=O)c1c(O)cccc1C3=O,CP315,10690,"inhibitor, partial curve"
CC(=O)[C@]1(O)Cc2c(O)c3c(c(O)c2[C@@H](O[C@H]2C[C@H](N)[C@H](O)[C@H](C)O2)C1)C(=O)c1c(O)cccc1C3=O,CP266,7569,"inhibitor, partial curve, poor fit"
CC(=O)[C@]1(O)Cc2c(O)c3c(c(O)c2[C@@H](O[C@H]2C[C@H](N)[C@H](O)[C@H](C)O2)C1)C(=O)c1c(O)cccc1C3=O,ECU,8912,"inhibitor, single point"
CC(=O)[C@]1(O)Cc2c(O)c3c(c(O)c2[C@@H](O[C@H]2C[C@H](N)[C@H](O)[C@H](C)O2)C1)C(=O)c1c(O)cccc1C3=O,DIV30,756.9,"inhibitor, full curve, poor fit"
CC(=O)[C@]1(O)Cc2c(O)c3c(c(O)c2[C@@H](O[C@H]2C[C@H](N)[C@H](O)[C@H](C)O2)C1)C(=O)c1c(O)cccc1C3=O,CP217,10000,"inhibitor, single point"
CC(=O)[C@]1(O)Cc2c(O)c3c(c(O)c2[C@@H](O[C@H]2C[C@H](N)[C@H](O)[C@H](C)O2)C1)C(=O)c1c(O)cccc1C3=O,CP185,12589,"inhibitor, partial curve"
CC(=O)[C@]1(O)Cc2c(O)c3c(c(O)c2[C@@H](O[C@H]2C[C@H](N)[C@H](O)[C@H](C)O2)C1)C(=O)c1c(O)cccc1C3=O,CP256,10000,"inhibitor, single point"
CC(=O)[C@]1(O)Cc2c(O)c3c(c(O)c2[C@@H](O[C@H]2C[C@H](N)[C@H](O)[C@H](C)O2)C1)C(=O)c1c(O)cccc1C3=O,CP252,11220,"inhibitor, single point"
CC(=O)[C@]1(O)Cc2c(O)c3c(c(O)c2[C@@H](O[C@H]2C[C@H](N)[C@H](O)[C@H](C)O2)C1)C(=O)c1c(O)cccc1C3=O,C2A,141.3,"inhibitor, full curve, poor fit"
CC(=O)[C@]1(O)Cc2c(O)c3c(c(O)c2[C@@H](O[C@H]2C[C@H](N)[C@H](O)[C@H](C)O2)C1)C(=O)c1c(O)cccc1C3=O,CP201,11995,"inhibitor, partial curve"

Once more, the final 2:

- CC(=O)[C@]1(O)Cc2c(O)c3c(c(O)c2[C@@H](O[C@H]2C[C@H](N)[C@H](O)[C@H](C)O2)C1)C(=O)c1c(O)cccc1C3=O [C2A] : fitted potency 141.3 nM (inhibitor, full curve, poor fit)
- CC(=O)[C@]1(O)Cc2c(O)c3c(c(O)c2[C@@H](O[C@H]2C[C@H](N)[C@H](O)[C@H](C)O2)C1)C(=O)c1c(O)cccc1C3=O [CP201] : fitted potency 11995 nM (inhibitor, partial curve)